Test results taken from patent publication US12021195B2, “Asymmetric electrolyte salts and batteries incorporating such salts” (OHIO STATE INNOVATION FOUNDATION, priority 2019, dated 2024).

Experiments:
[1] = Potassium-oxygen battery cycling; conditions: no K+-Nafion membrane
[2] = Al anodic dissolution, cyclic voltammetry of Li∥Al coin cells; conditions: after Li∥Al coin cell testing
[3] = vs. Li+/Li, cited from earlier work

Row | Structure (SMILES) | pitting of the Al electrode, optical microscope [2] | potential above which aluminum undergoes anodic dissolution [3] | also measured
1 | COCCC[N-]S(=O)(=O)C(F)(F)F.[K+] [KMPSA] |  |  | cycle life of potassium-oxygen battery ([1]; 0.2× KMPSA/DME): about 10 cycles; cycle life of potassium-oxygen battery ([1]; 0.4× KMPSA/DME): over 60 cycles
2 | O=S(=O)([N-]CC(F)(F)C(F)(F)F)C(F)(F)F.[Li+] [LiFPSA] | Some pits |  | 
3 | COCCC[N-]S(=O)(=O)C(F)(F)F.[Li+] [LiMPSA] | negligible pitting |  | 
4 | O=S(=O)([O-])C(F)(F)F.[Li+] [LiOTf, lithium trifluoromethanesulfonate] |  | above 2.7 V | potential above which significant pitting develops ([3]; carbonate solvent): above 3.0 V
5 | O=S(=O)([N-]S(=O)(=O)C(F)(F)F)C(F)(F)F.[Li+] [LiTFSI, lithium bis(trifluoromethanesulfonyl)imide, reference compound] | significant amount of aluminum pits | above 3.5 V | 
